These are yes or no findings as the source states them, for the method shown. For part of these data: In cells and extracts the contact can be indirect. Some results given as binding are weak or reduced against the parent protein; the word gives no strength. Tags and fused reporters may be left off the sequences shown.
How the values were obtained:
[1] = biological target: T1, Staphylococcus aureus MazF toxin (SaMazF), N-terminally His-tagged (Staphylococcus aureus) (UniProt Q7A4G9); assay: pull-down; Ni-NTA column traps His-SaMazF with co-expressed SaMazE from E. coli lysate; wash with 20 mM Tris-HCl pH 7.0, 300 mM NaCl, 20 mM imidazole; SaMazE then eluted with a 0-3 M GdHCl gradient
T1 sequence: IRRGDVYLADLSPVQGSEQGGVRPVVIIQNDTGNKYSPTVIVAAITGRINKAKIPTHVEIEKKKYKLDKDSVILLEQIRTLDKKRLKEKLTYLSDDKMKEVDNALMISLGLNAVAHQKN

The chains behind the UniProt entries cited, without tags or fusion partners. Where a name states a change or a piece, a line headed by the entry shows the natural chain unless it says otherwise.
UniProt A7X4P6: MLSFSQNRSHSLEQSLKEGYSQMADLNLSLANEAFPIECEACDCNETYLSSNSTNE

[2] = biological target: T1, Staphylococcus aureus MazF toxin (SaMazF), N-terminally His-tagged (Staphylococcus aureus); assay: CD spectroscopy; data not shown; SaMazE23-56 with SaMazF; both purified
[3] = biological target: T1, Staphylococcus aureus MazF toxin (SaMazF), N-terminally His-tagged (Staphylococcus aureus); assay: NMR titration; 3.5 mM SaMazE23-56 titrated into 0.5 mM 13C15N-labelled SaMazF, 20 mM phosphate pH 6.6, 308 K, 15N-HSQC; analysed at the 1:1 ratio; both purified

Substance: Staphylococcus aureus MazE antitoxin (SaMazE) (from UniProt A7X4P6 1-56)
- binding [1]: binds

Substance: SaMazE-derived C-terminal peptide, residues 23-56 (SaMazE23-56) (from UniProt A7X4P6 23-56)
- binding [2]: binds
- binding [3]: binds

Source: publication PMC4041440, “Structural and biophysical characterization of Staphylococcus aureus SaMazF shows conservation of functional dynamics” (Nucleic Acids Research, 2014)
